Results as given in patent publication US20110223107A1.
No constants are given. Whether binding was seen depends on the method and setting. Some results given as binding are weak or reduced against the parent protein; the word gives no strength. For some assays here: Where a sequence is shown, tags or fusion partners need not be part of it.

Tests used:
[1] = target: T1, KAAG1 (Kidney associated antigen 1), endogenous, on cancer cells and in tumour tissue (human) (UniProt Q9UBP8); test: cell-based ELISA on fixed, non-permeabilised OV-90 cells
T1 sequence: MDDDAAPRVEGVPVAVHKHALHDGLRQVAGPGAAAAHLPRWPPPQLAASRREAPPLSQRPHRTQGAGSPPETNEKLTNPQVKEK

[2] = target: T1, KAAG1 (Kidney associated antigen 1), endogenous, on cancer cells and in tumour tissue (human); test: cell-based ELISA on fixed, non-permeabilised SKOV-3 cells
[3] = target: T1, KAAG1 (Kidney associated antigen 1), endogenous, on cancer cells and in tumour tissue (human); test: cell-based ELISA on fixed, non-permeabilised TOV-21G cells
[4] = target: T1, KAAG1 (Kidney associated antigen 1), endogenous, on cancer cells and in tumour tissue (human); test: cell-based ELISA on non-permeabilised fixed OV-90, TOV-21G and SKOV-3 cells, HRP anti-human IgG detection
[5] = target: T1, KAAG1 (Kidney associated antigen 1), endogenous, on cancer cells and in tumour tissue (human); test: cell-based ELISA on non-permeabilised fixed cells; signal on SKOV-3 only, not on OV-90 or TOV-21G
[6] = target: T1, KAAG1 (Kidney associated antigen 1), endogenous, on cancer cells and in tumour tissue (human); test: flow cytometry on SKOV-3 cells, anti-mouse IgG-FITC
[7] = target: T1, KAAG1 (Kidney associated antigen 1), endogenous, on cancer cells and in tumour tissue (human); test: flow cytometry on SKOV-3 cells at saturating conditions, FITC anti-mouse IgG detection
[8] = target: recombinant Fc-KAAG1 fusion protein (full-length KAAG1) (human) (UniProt Q9UBP8); test: ELISA on biotinylated Fc-KAAG1
[9] = target: T2, Fc-fused truncated mutant of KAAG1 spanning amino acids 1-35 (human); test: ELISA on Fc-fused truncated KAAG1
T2 sequence: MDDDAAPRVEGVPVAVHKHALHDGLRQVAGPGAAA

[10] = target: T1, KAAG1 (Kidney associated antigen 1), endogenous, on cancer cells and in tumour tissue (human); test: immunohistochemistry on an ovarian tumour tissue microarray (FIG. 8A legend)
[11] = target: T1, KAAG1 (Kidney associated antigen 1), endogenous, on cancer cells and in tumour tissue (human); test: immunohistochemistry on paraffin-embedded ovarian tumour tissue microarrays, biotin anti-kappa and streptavidin-HRP detection

B1: 3D3 mouse-human chimeric IgG1 anti-KAAG1 monoclonal antibody (antibody, V domains shown)
VH: EVQLQQSVAELVRPGASVTLSCKASGYIFTDYEIHWVKQTPVHGLEWIGVIDPETGNTAFNQKFKGKATLTADISSSTAYMELSSLTSEDSAVYYCMGYSDYWGQGTTLTVSS
VL: DIVMTQSPSSLAVSIGQKVTMNCKSSQSLLNSNFQKNFLAWYQQKPGQSPKLLIYFASTRESSIPDRFIGSGSGTDFTLTISSVQAEDLADYFCQQHYSTPLTFGAGTKLELKA
**Q.** How did the binding [1] turn out when B1 was run?
**A.** binds

**Q.** What about the binding [2] of the same binder?
**A.** binds

**Q.** What about the binding [3] of the same binder?
**A.** binds

**Q.** What about the binding [4] of the same binder?
**A.** binds

B2: 3C4 mouse-human chimeric IgG1 anti-KAAG1 monoclonal antibody (antibody, V domains shown)
VH: EVQLQESGPDLVKPSQSLSLTCTVTGFSITSGYGWHWIRQFPGNKLEWMGYINYDGHNDYNPSLKSRISITQDTSKNQFFLQLNSVTTEDTATYYCASSYDGLFAYWGQGTLVTVSA
VL: DIVMSQSPSSMYASLGERVTITCKASQDIHNFLNWFQQKPGKSPKTLIFRANRLVDGVPSRFSGSGSGQDYSLTISSLEFEDLGIYSCLQYDEIPLTFGAGTKLELRA
**Q.** How did the binding [1] turn out when B2 was run?
**A.** binds

**Q.** What about the binding [2] of the same binder?
**A.** binds

**Q.** And the binding [3]?
**A.** binds

**Q.** And the binding [4]?
**A.** binds

B3: 3G10 mouse-human chimeric IgG1 anti-KAAG1 monoclonal antibody (antibody, V domains shown)
VH: EIQLQQSGPELVKPGASVKISCKASGYTFTDNYMNWVKQSHGKSLEWIGDINPYYGTTTYNQKFKGKATLTVDKSSRTAYMELRGLTSEDSAVYYCARDDWFDYWGQGTLVTVSA
VL: DVLMTQTPRSLSVSLGDQASISCRSSQSLLHSNGNTYLEWYLQKPGQPPKVLIYKVSNRFSGVPDRFSGSGSGTDFTLKISGVEAEDLGVYYCFQGSHVPLTFGAGTKLELKA
**Q.** Which binding [1] does the source give for B3 here?
**A.** binds

**Q.** And the binding [2]?
**A.** binds

**Q.** And the binding [3]?
**A.** binds

**Q.** And the binding [5]?
**A.** binds

B4: mouse 3D3 anti-KAAG1 antibody (antibody, V domains shown)
VH: EVQLQQSVAELVRPGASVTLSCKASGYIFTDYEIHWVKQTPVHGLEWIGVIDPETGNTAFNQKFKGKATLTADISSSTAYMELSSLTSEDSAVYYCMGYSDYWGQGTTLTVSS
VL: DIVMTQSPSSLAVSIGQKVTMNCKSSQSLLNSNFQKNFLAWYQQKPGQSPKLLIYFASTRESSIPDRFIGSGSGTDFTLTISSVQAEDLADYFCQQHYSTPLTFGAGTKLELK
**Q.** For B4, which binding [6] is on record?
**A.** binds

**Q.** And the binding [7]?
**A.** binds

B5: Fab of well C2 (Omniclonal AL0003Z1 plate) (Fab, V domains shown)
VH: DVQLQESGPDLVKPSQSLSLTCTVTGFSITSGYGWHWIRQFPGNKLEWMGYISFNGDSNYNPSLKSRISITRDTSKNQFFLQLNSVTSEDTATYYCASSYDGLFAYWGQGPLVTVSA
VL: DIQMTQSPSSMYASLGERVTLTCKASQDIHNYLNWFQQKPGKSPKTLIHRANRLVAGVPSRFSGSGSGQDYSLTISSLEYEDLGIYYCLQYDAFPLTFGAGTKLELK
**Q.** B5 was tested. Which binding [8] did it give?
**A.** binds

**Q.** And the binding [9]?
**A.** binds

B6: Fab of well D1 (Omniclonal AL0003Z1 plate) (Fab, V domains shown)
VH: EVQLQESGPDLVKPSQSLSLTCTVTGFSITSGYGWHWIRQFPGDKLEWMGYISFNGDYNYNPSLKSRISITRDTSKNQFFLQLSSVTTEDTATYYCASSYDGLFAYWGQGTLVTVSA
VL: DIKMTQSPSSMYASLGERVTITCKASQDIHTYLNWFQQKPGKSPETLIYRANRLVDGVPSRFSGSGSGQDYSLTISSLEYEDMGIYYCLQYDEFPLTFGAGTKLELK
**Q.** For B6, which binding [8] is on record?
**A.** binds

**Q.** And the binding [9]?
**A.** binds

B7: anti-KAAG1 3D3 (primary mAb of the immunohistochemistry) (antibody, V domains shown)
VH: EVQLQQSVAELVRPGASVTLSCKASGYIFTDYEIHWVKQTPVHGLEWIGVIDPETGNTAFNQKFKGKATLTADISSSTAYMELSSLTSEDSAVYYCMGYSDYWGQGTTLTVSS
VL: DIVMTQSPSSLAVSIGQKVTMNCKSSQSLLNSNFQKNFLAWYQQKPGQSPKLLIYFASTRESSIPDRFIGSGSGTDFTLTISSVQAEDLADYFCQQHYSTPLTFGAGTKLELK
**Q.** B7 was tested. Which binding [10] did it give?
**A.** binds

**Q.** And the binding [11]?
**A.** binds
